These are yes or no findings as the source states them, for the method shown. A result given as binding can be weak or reduced; the word gives no strength.
Experiments:
[1] = molecular target: cynomolgus monkey B7-H3 (cynomolgus monkey); assay: summary of Example 1
[2] = molecular target: human B7-H3, 2Ig form (human); assay: Specificity (Table 21)
[3] = molecular target: cynomolgus monkey B7-H3 (cynomolgus monkey); assay: Cyno cross-reactivity
[4] = molecular target: cynomolgus monkey B7-H3 (cynomolgus monkey); assay: Cyno B7-H3 binding (grade)
[5] = molecular target: cynomolgus monkey B7-H3 (cynomolgus monkey); assay: summary of activities (Table 6)
[6] = molecular target: cynomolgus monkey B7-H3 (cynomolgus monkey); assay: Cynomolgus B7-H3 binding (grade, Table 21)
[7] = molecular target: human B7-H3, 2Ig form (human); assay: summary of attributes
[8] = molecular target: cynomolgus monkey B7-H3 (cynomolgus monkey); assay: summary of attributes
[9] = molecular target: cynomolgus monkey B7-H3 (cynomolgus monkey); assay: IHC on cynomolgus tissues
[10] = molecular target: human B7-H3, 2Ig form (human); assay: 2Ig/4Ig specificity
[11] = molecular target: human B7-H3, 2Ig form (human); assay: BIACORE, mAb titrated over immobilized antigen

Measured: binding

B1: PRCA157 (antibody, IgG1, V domains shown)
VH: EVQQVESGGDLVKPGGSLKLSCAASGFTFSSYGMSWVRQTPDKRLEWVATINSGGSNTYYPDSLKGRFTISRDNAKNTLYLQMRSLKSEDTAMYYCARHDGGAMDYWGQGTSVTVSS
VL: DIQMTQSPASLSVSVGETVTITCRASESIYSYLAWYQQKQGKSPQLLVYNTKTLPEGVPSRFSGSGSGTQFSLKINSLQPEDFGRYYCQHHYGTPPWTFGGGTNLEIK
not listed: [11]
binds: all other assays above

B2: BRCA69D (antibody, IgG1, V domains shown)
VH: QVQLQQSGAELARPGASVKLSCKASGYTFTSYWMQWVKQRPGQGLEWIGTIYPGDGDTRYTQKFKGKATLTADKSSSTAYMQLSSLASEDSAVYYCARRGIPRLWYFDVWGAGTTVTVSS
VL: DIQMTQTTSSLSASLGDRVTISCRASQDISNYLNWYQQKPDGTVKLLIYYTSRLHSGVPSRFSGSGSGTDYSLTIDNLEQEDIATYFCQQGNTLPPTFGGGTKLEIK
notes: also called BRCA69A (probable misprint)
binds: all assays above

Source: patent US20120294796A1 (MacroGenics, published 2012)
